Experimental data as given in PMC9730843.
Where a chain is given by its changes, count along the chain named. In names and notes the source's numbering stands. No constants are given. Whether binding was seen depends on the method and setting. For some assays here: Tags and fused reporters may be left off the sequences shown.

B1: PnG, type II thioesterase (TEII) of the phoslactomycin polyketide synthase (Pn PKS) (enzyme)
chain: MVTESDRWIRSYLPGPAEALPVVHFPHAGGSASYYRPFCAALSDRFNALALQYPGRQDRRDEPCVTDLHVLADLLFDRLRQCADRPMAFFGHSMGALLAFEVTRRFERELNTSPVALFLSGRRAPSRHRDENVDLSSNESLLAEIRELSGTDPRLLGDDEMLEMIMEPLRADYQALGAYHFAPEPPVRCPVTVLTGADDPRTSQDEAAAWQEHTTGAFDLRVFPGGHFFISENVADVTGFVAERLSAVPLAG
B2: PnG S93G, active-site (catalytic) knockout (enzyme)
chain: B1 chain with S93G

Columns and labels:
[1] = target: PnG, type II thioesterase (TEII) of the phoslactomycin polyketide synthase (Pn PKS); experiment: SEC; HiLoad 16/600 Superdex 200 pg column, 300 mM NaCl, 25 mM NaH2PO4, pH 7.5; elution after Ni-NTA purification; both purified
[2] = target: PnG S93G, active-site (catalytic) knockout; experiment: as above

Row | Binder | binding [1] | binding [2]
1 | B1 | no binding | 
2 | B2 |  | no binding
